Experimental data as given in article doi:10.1101/2024.07.01.601608.
Results are given in words; binding and its absence hold for the method and conditions named. Binding seen in cells or lysates may run through a third protein. A yes stands for co-enrichment or nearness to the bait. Other partners may have been found. No binding means not detected with the bait.

By UniProt entry, the sequences of proteins in these tests, tags left out.
UniProt P49336: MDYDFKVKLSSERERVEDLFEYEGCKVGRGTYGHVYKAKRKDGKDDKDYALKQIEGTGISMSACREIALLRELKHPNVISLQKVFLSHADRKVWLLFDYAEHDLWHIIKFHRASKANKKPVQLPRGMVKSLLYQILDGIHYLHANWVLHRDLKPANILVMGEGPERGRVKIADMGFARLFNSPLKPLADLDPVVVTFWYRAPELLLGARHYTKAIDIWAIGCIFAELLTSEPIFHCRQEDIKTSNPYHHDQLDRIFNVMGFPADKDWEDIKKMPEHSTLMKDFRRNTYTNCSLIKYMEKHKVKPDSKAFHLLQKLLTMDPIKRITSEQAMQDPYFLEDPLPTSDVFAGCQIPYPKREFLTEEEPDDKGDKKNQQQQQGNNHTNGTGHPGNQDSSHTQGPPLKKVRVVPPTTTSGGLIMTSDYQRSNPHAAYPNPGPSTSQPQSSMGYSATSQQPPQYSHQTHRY
UniProt Q9BWU1: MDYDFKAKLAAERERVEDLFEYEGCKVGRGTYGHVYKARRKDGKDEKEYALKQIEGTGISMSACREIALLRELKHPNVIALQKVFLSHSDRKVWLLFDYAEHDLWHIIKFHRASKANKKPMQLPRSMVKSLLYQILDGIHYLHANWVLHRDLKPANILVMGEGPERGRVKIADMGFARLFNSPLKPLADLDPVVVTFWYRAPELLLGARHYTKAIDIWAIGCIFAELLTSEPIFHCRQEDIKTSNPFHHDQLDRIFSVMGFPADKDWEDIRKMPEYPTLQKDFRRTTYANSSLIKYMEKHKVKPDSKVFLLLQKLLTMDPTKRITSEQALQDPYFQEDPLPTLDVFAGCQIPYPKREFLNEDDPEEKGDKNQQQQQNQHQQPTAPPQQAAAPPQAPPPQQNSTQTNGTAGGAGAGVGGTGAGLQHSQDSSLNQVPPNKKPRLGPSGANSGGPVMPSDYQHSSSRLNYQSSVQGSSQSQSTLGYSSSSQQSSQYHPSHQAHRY
UniProt Q86YW9: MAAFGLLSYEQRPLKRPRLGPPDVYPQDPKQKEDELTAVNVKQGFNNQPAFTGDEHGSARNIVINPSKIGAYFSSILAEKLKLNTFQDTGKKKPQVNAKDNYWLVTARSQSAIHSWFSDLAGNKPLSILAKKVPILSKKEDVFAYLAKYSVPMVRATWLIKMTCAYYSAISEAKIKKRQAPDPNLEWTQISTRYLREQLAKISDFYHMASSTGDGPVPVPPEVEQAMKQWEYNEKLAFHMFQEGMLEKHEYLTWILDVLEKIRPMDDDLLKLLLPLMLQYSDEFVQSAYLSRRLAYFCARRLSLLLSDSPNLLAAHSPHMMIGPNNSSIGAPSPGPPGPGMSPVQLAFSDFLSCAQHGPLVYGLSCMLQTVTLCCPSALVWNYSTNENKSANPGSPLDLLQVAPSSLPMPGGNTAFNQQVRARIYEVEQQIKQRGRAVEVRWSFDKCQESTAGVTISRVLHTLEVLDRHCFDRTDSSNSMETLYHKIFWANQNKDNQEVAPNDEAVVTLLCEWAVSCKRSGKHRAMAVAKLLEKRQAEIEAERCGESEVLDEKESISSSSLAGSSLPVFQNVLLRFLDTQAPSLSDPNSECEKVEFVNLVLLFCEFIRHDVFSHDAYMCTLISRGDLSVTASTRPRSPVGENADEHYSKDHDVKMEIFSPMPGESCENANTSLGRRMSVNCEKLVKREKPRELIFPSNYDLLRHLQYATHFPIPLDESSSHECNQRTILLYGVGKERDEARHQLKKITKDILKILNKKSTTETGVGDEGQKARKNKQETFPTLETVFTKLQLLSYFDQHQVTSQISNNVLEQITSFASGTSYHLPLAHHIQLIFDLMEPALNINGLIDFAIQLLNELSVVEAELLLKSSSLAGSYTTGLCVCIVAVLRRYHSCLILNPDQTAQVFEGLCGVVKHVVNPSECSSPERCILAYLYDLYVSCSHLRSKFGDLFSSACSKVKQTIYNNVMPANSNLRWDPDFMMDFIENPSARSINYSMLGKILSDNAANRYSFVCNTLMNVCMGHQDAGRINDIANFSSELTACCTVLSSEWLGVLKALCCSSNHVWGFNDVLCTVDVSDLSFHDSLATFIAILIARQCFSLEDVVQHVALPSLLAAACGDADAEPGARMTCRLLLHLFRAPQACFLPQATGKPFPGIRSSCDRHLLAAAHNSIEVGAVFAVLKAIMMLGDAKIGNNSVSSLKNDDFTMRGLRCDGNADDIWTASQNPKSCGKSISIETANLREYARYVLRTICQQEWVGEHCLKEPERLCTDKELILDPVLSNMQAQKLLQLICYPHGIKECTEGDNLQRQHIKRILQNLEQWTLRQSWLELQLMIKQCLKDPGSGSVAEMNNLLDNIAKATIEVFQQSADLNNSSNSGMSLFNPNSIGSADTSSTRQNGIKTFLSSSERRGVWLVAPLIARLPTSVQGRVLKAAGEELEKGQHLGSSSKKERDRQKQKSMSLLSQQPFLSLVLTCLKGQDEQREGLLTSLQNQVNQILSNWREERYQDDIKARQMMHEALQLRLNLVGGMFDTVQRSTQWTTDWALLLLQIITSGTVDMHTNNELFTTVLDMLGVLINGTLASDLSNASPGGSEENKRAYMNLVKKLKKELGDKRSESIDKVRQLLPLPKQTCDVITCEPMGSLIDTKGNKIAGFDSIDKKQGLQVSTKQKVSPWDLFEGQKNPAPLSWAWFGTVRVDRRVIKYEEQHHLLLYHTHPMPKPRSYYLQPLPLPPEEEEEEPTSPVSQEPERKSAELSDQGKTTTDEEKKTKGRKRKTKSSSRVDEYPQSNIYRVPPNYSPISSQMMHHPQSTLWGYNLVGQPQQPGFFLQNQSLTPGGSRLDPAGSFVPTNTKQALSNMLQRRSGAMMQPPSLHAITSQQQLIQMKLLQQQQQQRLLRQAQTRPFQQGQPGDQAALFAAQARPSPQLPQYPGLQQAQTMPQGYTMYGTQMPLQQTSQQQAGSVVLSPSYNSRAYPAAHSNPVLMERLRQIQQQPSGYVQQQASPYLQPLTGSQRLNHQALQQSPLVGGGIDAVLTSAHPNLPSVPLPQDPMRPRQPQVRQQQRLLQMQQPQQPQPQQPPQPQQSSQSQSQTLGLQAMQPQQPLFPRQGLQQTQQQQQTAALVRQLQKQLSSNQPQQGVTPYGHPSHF
UniProt Q71F56: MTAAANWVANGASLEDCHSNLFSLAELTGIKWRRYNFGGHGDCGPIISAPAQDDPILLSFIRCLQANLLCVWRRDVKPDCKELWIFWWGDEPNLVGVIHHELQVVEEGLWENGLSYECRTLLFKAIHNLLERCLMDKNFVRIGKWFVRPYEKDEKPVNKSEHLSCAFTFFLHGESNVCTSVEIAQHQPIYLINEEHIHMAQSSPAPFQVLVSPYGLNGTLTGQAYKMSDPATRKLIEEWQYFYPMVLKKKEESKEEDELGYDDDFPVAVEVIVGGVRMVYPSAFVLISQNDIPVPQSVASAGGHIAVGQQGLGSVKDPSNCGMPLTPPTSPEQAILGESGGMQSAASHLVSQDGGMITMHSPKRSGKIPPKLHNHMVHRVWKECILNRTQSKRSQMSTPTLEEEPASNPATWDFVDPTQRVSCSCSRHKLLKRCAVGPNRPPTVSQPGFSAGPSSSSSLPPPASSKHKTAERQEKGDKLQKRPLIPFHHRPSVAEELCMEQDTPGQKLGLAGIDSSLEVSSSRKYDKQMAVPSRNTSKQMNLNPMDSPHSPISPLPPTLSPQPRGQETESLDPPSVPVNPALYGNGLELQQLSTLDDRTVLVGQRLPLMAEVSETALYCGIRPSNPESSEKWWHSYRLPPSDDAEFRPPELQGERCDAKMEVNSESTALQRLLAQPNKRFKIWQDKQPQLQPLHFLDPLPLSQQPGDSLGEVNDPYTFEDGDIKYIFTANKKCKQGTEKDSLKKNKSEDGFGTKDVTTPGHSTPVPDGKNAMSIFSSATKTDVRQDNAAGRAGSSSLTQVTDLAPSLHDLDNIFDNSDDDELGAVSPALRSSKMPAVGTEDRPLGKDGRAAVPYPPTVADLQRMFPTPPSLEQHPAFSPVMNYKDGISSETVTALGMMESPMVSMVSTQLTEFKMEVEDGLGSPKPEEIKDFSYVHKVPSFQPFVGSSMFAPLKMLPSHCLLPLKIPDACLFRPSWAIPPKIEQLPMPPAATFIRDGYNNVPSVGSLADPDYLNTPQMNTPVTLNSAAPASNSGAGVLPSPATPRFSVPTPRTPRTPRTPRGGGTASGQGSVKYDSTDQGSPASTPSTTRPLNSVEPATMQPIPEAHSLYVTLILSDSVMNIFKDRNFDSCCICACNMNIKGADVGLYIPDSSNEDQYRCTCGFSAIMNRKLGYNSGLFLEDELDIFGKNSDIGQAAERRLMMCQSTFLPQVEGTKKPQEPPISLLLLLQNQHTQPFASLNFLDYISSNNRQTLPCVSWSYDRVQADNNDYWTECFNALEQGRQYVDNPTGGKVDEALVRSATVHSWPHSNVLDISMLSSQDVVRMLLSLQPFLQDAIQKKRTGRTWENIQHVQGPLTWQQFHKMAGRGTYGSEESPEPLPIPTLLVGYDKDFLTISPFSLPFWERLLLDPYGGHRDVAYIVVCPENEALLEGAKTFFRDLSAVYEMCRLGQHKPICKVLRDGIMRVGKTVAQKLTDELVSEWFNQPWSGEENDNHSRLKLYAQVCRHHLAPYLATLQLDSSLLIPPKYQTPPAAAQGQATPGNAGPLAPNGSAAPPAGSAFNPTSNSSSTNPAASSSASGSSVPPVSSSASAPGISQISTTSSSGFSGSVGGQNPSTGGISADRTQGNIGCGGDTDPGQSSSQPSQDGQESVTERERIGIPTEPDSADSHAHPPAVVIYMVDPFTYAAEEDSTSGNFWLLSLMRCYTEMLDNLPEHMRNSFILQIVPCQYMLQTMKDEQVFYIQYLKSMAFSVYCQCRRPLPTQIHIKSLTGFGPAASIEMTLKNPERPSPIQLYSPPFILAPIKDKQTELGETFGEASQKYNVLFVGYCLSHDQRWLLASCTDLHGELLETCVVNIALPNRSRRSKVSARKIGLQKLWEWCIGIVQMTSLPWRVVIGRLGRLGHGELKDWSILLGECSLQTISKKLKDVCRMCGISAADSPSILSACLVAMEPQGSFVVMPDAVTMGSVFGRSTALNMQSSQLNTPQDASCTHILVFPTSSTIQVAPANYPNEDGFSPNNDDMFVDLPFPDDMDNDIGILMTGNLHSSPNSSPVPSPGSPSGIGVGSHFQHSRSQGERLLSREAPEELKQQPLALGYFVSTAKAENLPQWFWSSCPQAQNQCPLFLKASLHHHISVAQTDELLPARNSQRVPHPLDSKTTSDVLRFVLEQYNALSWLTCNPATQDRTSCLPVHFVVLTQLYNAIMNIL

target: Flag-tagged CDK8 expressed in 293-F cells (human) (UniProt P49336); assay: affinity purification with mass spectrometry

Row | binding | Substance
1 | no binding | CDK19 (endogenous) (from UniProt Q9BWU1 1-502) (enzyme)
2 | binds | MED12L (endogenous) (from UniProt Q86YW9 1-2145)
3 | binds | MED13L (endogenous) (from UniProt Q71F56 1-2210)
